Laboratory results reported in patent US20220195054A1 (BERGEN TEKNOLOGIOVERF RING, published 2022).
Results are given in words; binding and its absence hold for the method and conditions named. Some entries that bind do so weakly or less than the wild type.

By UniProt entry, the sequences of proteins in these tests, tags left out. Where a name states a change or a piece, a line headed by the entry shows the natural chain unless it says otherwise. Chains listed by the source or under a name are the forms on record and can include a tag or linker.
Rhesus Axl-Fc (G7NLI7, form named): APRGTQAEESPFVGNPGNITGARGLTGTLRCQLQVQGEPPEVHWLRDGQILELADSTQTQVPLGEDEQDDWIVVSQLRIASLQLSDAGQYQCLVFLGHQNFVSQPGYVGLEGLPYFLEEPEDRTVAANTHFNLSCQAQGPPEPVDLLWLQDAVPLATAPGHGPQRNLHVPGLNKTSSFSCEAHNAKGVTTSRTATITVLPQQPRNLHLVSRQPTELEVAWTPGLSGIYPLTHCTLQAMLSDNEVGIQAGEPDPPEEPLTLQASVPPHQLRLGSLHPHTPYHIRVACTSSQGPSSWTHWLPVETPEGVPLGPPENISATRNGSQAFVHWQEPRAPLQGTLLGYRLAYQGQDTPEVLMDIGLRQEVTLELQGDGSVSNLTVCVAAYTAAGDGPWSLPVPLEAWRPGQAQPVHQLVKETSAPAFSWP

B1: humanised 10G5 antibody H2L1 (antibody, human IgG1, kappa, V domains shown)
VH: EVQLVESGGGLVQPGGSLRLSCAASGYSFTDFYINWVRQAPGKGLEWVARIFPGGDNTYYNEKFKGRFTLSADTSKSTAYLQMNSLRAEDTAVYYCARRGLYYAMDYWGQGTLVTVSS
VL: DIQMTQSPSSLSASVGDRVTITCRSSQSLVHSNGIPYLHWYQQKPGKAPKLLIYRVSNRFSGVPSRFSGSGSGTDFTLTISSLQPEDFATYYCSQGTHVPPTFGQGTKVEIKR
notes: H2L1 is read as GH2 heavy chain + GL1 light chain; also called hu10G5 H2L1; Hu10G5 (H2L1)
B2: humanised 10G5 antibody H2L1, second preparation (H2L1-prep2) (antibody, human IgG1, kappa, V domains shown)
VH: B1 VH
VL: B1 VL
B3: chimeric monoclonal antibody 10G5 (mouse variable/human constant IgG1) (antibody, V domains shown)
VH: QVQLQQSGAELVRPGASVKLSCKASGYSFTDFYINWVRQRPGQGLEWIARIFPGGDNTYYNEKFKGKATLTAEESSSTAYIQLSSLTSEDSAVYFCARRGLYYAMDYWGQGISVTVSS
VL: DVLMTQTPLSLPVSLGDQASISCRSSQSLVHSNGIPYLHWYLQKPGQSPKLLIYRVSNRFSGVPDRFSGSGSGTDFTLKISRVEAEDLGVYFCSQGTHVPPTFGGGTKLEIK
notes: also called c10G5; C10G5

Molecular target: Rhesus Axl-Fc (rhesus) (UniProt G7NLI7)
Assay: SPR (Biacore), Rhe-Axl-Fc immobilised (350.2 RU), antibody 25 µg/mL

Row | Binder | binding
1 | B1 | binds
2 | B2 | binds
3 | B3 | binds
